Values from PubChem BioAssay AID1508588 (Peter MacCallum Cancer Centre, 2020).

Aim: 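Genome-wide search for knock-downs that heighten vemurafenib action in melanoma cells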 (primary screen)
Cell system: human WM266.4 melanoma cells (BRAF V600 mutant)
Reagent: siRNA pool against human genes, 40 nM
Time to read-out: 96 h from transfection to read-out
Challenge: vemurafenib 300 nM (about IC25), added 48 h after transfection, for 48 h; comparison arm got DMSO vehicle only
Measurement: 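Ratios to non-targeting siRNA for cell gain, counted as DAPI nuclei after minus before drug and averaged over two replicates, and for absorbance-read medium lactate per cell; both binned into fold-change classes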
Scale: cell gain with vemurafenib: higher = more cell gain than with non-targeting siRNA; lactate per cell with vemurafenib: higher = more lactate made per cell
Call rule: 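a knock-down counts as enhancing when its fold-change classes with vehicle and with vemurafenib, taken together, show a stronger drug effect on cell gain or lactate per cell; exact class pairs not stated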
Meaning of the calls: active = enhances vemurafenib effect; inactive = no enhancement seen
Here is an unselected part of about 18,000 deposited reagents. 790 of all reagents (4.4%) count as active. 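Calls rest on a combination of fold-change classes in drug and vehicle arms, not all shown here.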 Unmarked entries are inactive. Reagents against one gene are numbered here. No sequences are given here.

Gene,reagent no.,cell gain with vemurafenib,lactate per cell with vemurafenib
METAP1D (GeneID 254042),1,0.17,0.65
RBBP8NL (GeneID 140893),1,0.42,1.78
OR5T3 (GeneID 390154),1,-0.03,2.28
HNF4G (GeneID 3174),1,0.85,0.92
KDM4D (GeneID 55693),1,0.14,1.3
C15orf32 (GeneID 145858),1,1.03,1.06
JPH2 (GeneID 57158),1,0.01,1.31
CRH (GeneID 1392),1,0.88,0.76
MRGPRF (GeneID 116535),1,0.5,1.4
GNAQ (GeneID 2776),1,0.27,0.34
ABCF1 (GeneID 23),1,0.67,0.24
OR5D14 (GeneID 219436),1,0.41,0.61
CCL19 (GeneID 6363),1,0.15,2.63
SPIN4 (GeneID 139886),1,1.15,0.77
HNRNPA2B1 (GeneID 3181),1,0.16,1.57
FAIM (GeneID 55179),1,0.85,0.66
FLACC1 (GeneID 130540),1,0.87,1.23
SOX11 (GeneID 6664),1,0.38,1.15
TRAPPC13 (GeneID 80006),1,0.77,0.91
FBXL14 (GeneID 144699),1,0.65,0.57
KLHDC8B (GeneID 200942),1,0.2,1.1
IARS2 (GeneID 55699),1,0.71,1.02
USP47 (GeneID 55031),1,0.96,0.36
OR10G3 (GeneID 26533),1,0.76,0.94
BTG1 (GeneID 694),1,0.41,1.5
ARID1A (GeneID 8289),1,0.66,0.62
ARL1 (GeneID 400),1,0.8,0.79
PFAS (GeneID 5198),1,0.69,0.56
C5orf22 (GeneID 55322),1,0.58 (active),0.2
LINC00482 (GeneID 284185),1,0.71,0.72
CARD6 (GeneID 84674),1,0.86,1.22
OR4N3P (GeneID 390539),1,0.67,1.19
MCOLN1 (GeneID 57192),1,1.08,0.64
RBM5 (GeneID 10181),1,0.34,0.32
CARM1 (GeneID 10498),1,0.72,0.54
RRAGC (GeneID 64121),1,0.83,1.04
ESYT2 (GeneID 57488),1,0.73,0.9
ATP6V1B1 (GeneID 525),1,0.36,1.59
UBE2QL1 (GeneID 134111),1,0.07,1.43
SAG (GeneID 6295),1,0.28,2.42
PROX1 (GeneID 5629),1,0.62,1.9
GDPD5 (GeneID 81544),1,0.24,1.12
GORASP1 (GeneID 64689),1,0.47,1.3
LUZP4 (GeneID 51213),1,0.33 (active),0.3
PRICKLE2 (GeneID 166336),1,0.5,0.88
KIF21A (GeneID 55605),1,0.24,2
NPM1 (GeneID 4869),1,0.71,0.71
ATP1B1 (GeneID 481),1,0.58,1.56
SAE1 (GeneID 10055),1,0.72,0.69
GTF3C5 (GeneID 9328),1,0.68,1.34
C16orf90 (GeneID 646174),1,0.78,0.5
FMNL2 (GeneID 114793),1,1.11,0.41
GAL3ST4 (GeneID 79690),1,0.1,1.73
BLOC1S6 (GeneID 26258),1,0.13,3.54
RAB1A (GeneID 5861),1,0.27,1.82
DENND6A (GeneID 201627),1,0.72 (active),0.66
CCDC90B (GeneID 60492),1,0.78,1.39
GUK1 (GeneID 2987),1,0.37,0.4
TSGA10 (GeneID 80705),1,0.25,1.08
ENDOG (GeneID 2021),1,0.5,1.73
AJUBA (GeneID 84962),1,1.07,0.38
GDPD4 (GeneID 220032),1,0.34 (active),0.36
NOPCHAP1 (GeneID 121053),1,0.95,0.44
SLC2A9 (GeneID 56606),1,0.76,0.38
HRAS (GeneID 3265),1,0.24,1.34
GPN1 (GeneID 11321),1,0.33,1.88
PRR14 (GeneID 78994),1,0.25,2.06
SKIDA1 (GeneID 387640),1,0.8,0.53
YBX1 (GeneID 4904),1,0.38 (active),0.09
ALDH1A2 (GeneID 8854),1,0.51,0.54
TEDC2 (GeneID 80178),1,0.12,0.95
PROZ (GeneID 8858),1,1.04,0.67
ANAPC5 (GeneID 51433),1,0.38,1.49
TXNDC5 (GeneID 81567),1,0.79,1.16
ELF2 (GeneID 1998),1,0.48,0.4
ADAM12 (GeneID 8038),1,0.72,0.56
TFPI2 (GeneID 7980),1,0.41,1.36
SESTD1 (GeneID 91404),1,0.45,1.01
MROH5 (GeneID 389690),1,0.78,1.32
RD3 (GeneID 343035),1,0.32,1.52
B3GALT1 (GeneID 8708),1,0.62,1.31
CDCP1 (GeneID 64866),1,0.44,0.8
WDR44 (GeneID 54521),1,0.68,0.9
OR2T27 (GeneID 403239),1,0.91,1.39
TMEM214 (GeneID 54867),1,0.84,0.86
CDK6 (GeneID 1021),1,0.47,0.77
RMC1 (GeneID 29919),1,0.91,0.32
GPATCH1 (GeneID 55094),1,0.6 (active),0.44
SYT9 (GeneID 143425),1,0.11,1.15
ELMOD1 (GeneID 55531),1,0.5,1.05
ELMOD1 (GeneID 55531),2,0.66,0.58
CYBC1 (GeneID 79415),1,0.54,1.38
TEX12 (GeneID 56158),1,0.72,0.64
ZMAT2 (GeneID 153527),1,0.35,1.5
TRIM26 (GeneID 7726),1,1.12,0.7
TNFRSF14 (GeneID 8764),1,0.68,1.35
NIPSNAP3B (GeneID 55335),1,0.45,0.28
ARK2C (GeneID 494470),1,0.34,0.76
ERN1 (GeneID 2081),1,0.64,0.66
SNX8 (GeneID 29886),1,0.71,0.52
EIF1B (GeneID 10289),1,0.57,1.09
ZIC1 (GeneID 7545),1,0.38,1.01
TTLL3 (GeneID 26140),1,0.25,0.8
SPATA33 (GeneID 124045),1,0.53,0.68
ZNF665 (GeneID 79788),1,0.59,0.94
CIPC (GeneID 85457),1,0.43,0.88
TIPE2 (GeneID 79626),1,0.97 (active),0.47

Sorted by “cell gain with vemurafenib” (descending): 16 of the entries above
Gene,reagent no.,cell gain with vemurafenib,lactate per cell with vemurafenib
SPIN4 (GeneID 139886),1,1.15,0.77
USP47 (GeneID 55031),1,0.96,0.36
CRH (GeneID 1392),1,0.88,0.76
FLACC1 (GeneID 130540),1,0.87,1.23
FAIM (GeneID 55179),1,0.85,0.66
TRAPPC13 (GeneID 80006),1,0.77,0.91
IARS2 (GeneID 55699),1,0.71,1.02
ABCF1 (GeneID 23),1,0.67,0.24
FBXL14 (GeneID 144699),1,0.65,0.57
MRGPRF (GeneID 116535),1,0.5,1.4
OR5D14 (GeneID 219436),1,0.41,0.61
SOX11 (GeneID 6664),1,0.38,1.15
GNAQ (GeneID 2776),1,0.27,0.34
KLHDC8B (GeneID 200942),1,0.2,1.1
HNRNPA2B1 (GeneID 3181),1,0.16,1.57
CCL19 (GeneID 6363),1,0.15,2.63
